Assay results reported in patent publication US11306073B2, “N-acylurea derivative and composition comprising same for prevention or treatment of cardiovascular disease” (KOREA UNIVERSITY RESEARCH AND BUSINESS FOUNDATION, priority 2016, dated 2022).
Some results were stated once for a whole list of compounds, not compound by compound.

System: CHO/αIIbβ3 cell line
Assay: Screening of talin antagonist candidates: binding of CHO/αIIbβ3 cells to fibrinogen-coated plate (CCK-8 readout)
Format: cell-based
Settings: at a concentration ranging from 0.02 to 0.07 mM; FIG. 3
Description: Cells expressing platelet integrin αIIbβ3 were incubated with 0.2 mM of candidates, and the binding between the cells and fibrinogen was verified according to the experimental method shown in FIG. 1. In FIG. 2, 0% is a negative control and represents the degree to which cells adhere to a surface coated with bovine serum albumin (BSA) instead of fibrinogen, and 100% is a positive control and represents the degree to which cells adhere to fibrinogen in the absence of any candidate. The ability of candidates to inhibit fibrinogen binding was normalized to 100%, and the mean and standard error of three experiments are graphically shown.
Platelets bind to fibrinogen present in blood and produce thrombi. This binding is mediated by integrin αIIbβ3 present in the platelet cell membrane, and this integrin binds to fibrinogen after being activated by talin. […] The constructed cell line was cultured in a fibrinogen-coated 96-well plate for 1 hour and washed, after which the amount of remaining cells was measured to evaluate the efficacy of a talin antagonist candidate. […] To measure the degree to which the color changed to orange, the absorbance at a wavelength of 450 nm was measured with a plate reader. […]

## O=C(Cn1nnc(-c2ccccc2)n1)NC(=O)NCCC1=CNC2C=CC=CC12 (centres unmarked) [KCH-1513, N-((2-(3a,7a-dihydro-1H-indol-3-yl)ethyl)carbamoyl)-2-(5-phenyl-2H-tetrazol-2-yl)acetamide]
  inhibitory effect on binding between the CHO/αIIbβ3 cell line and fibrinogen (concentration-dependent): at least 50%

## O=C(COc1ccc2c(c1)OCO2)NC(=O)NCCc1c[nH]c2ccccc12 [KCH-1521]
  inhibitory effect on binding between the CHO/αIIbβ3 cell line and fibrinogen (concentration-dependent): at least 50%
